Assay results from PubChem BioAssay AID445 (National Center for Advancing Translational Sciences (NCATS), 2006).
Some of the results follow. Further columns of the screen follow, without active or inactive calls. Compounds called inactive in the main read-out are mostly missing here. Potencies come from curve fits of mixed quality, noted in brackets.

Experiment: IkB Signaling
Conditions: ABC-DLBCL IkBa-CBG/CBR dual luciferase ratio (green luciferase fused to IkBa over red control in OCI-Ly3 lymphoma cells), 4 h; measured here: control luc red channel unless noted
Method in brief: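 Luminescence ratio of IκBα-fused green versus native red beetle luciferase in OCI-Ly3 cells, 4 h post-doxycycline with compound; red signal alone, scaled from basal (0%) to zero light (-100%), flagged nonspecific or cytotoxic effects.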

Question: With `CCCN(c1ccc(C(C)C)cc1)S(=O)(=O)c1ccc2c(c1)oc(=O)n2CC(=O)OCC` as the compound, how does the AC50 read?
Answer: 7.94 µM [falling, full curve, poor fit]

Question: Which AC50 does the source give for `COc1ccc(-c2nc(CNC(=O)Nc3ccccc3)c(C)o2)cc1` here?
Answer: 39.8 µM [falling, single point]

Question: For `CCCSc1nnc2[nH]c(=O)cc(C)n12`, which AC50 is on record?
Answer: 5.01 µM [rising, single point]

Question: With `O=C(Nc1nnc(S(=O)(=O)Nc2ccccc2)s1)C1CCCCC1` as the compound, how does the AC50 read?
Answer: 3.16 µM [rising, partial curve]

Question: Which AC50 does the source give for `COc1cccc(NC(=O)c2oc3ccccc3c2NC(=O)C2CC2)c1` here?
Answer: 10 µM [falling, partial curve]

Question: With `CCN(CCNC(=O)C1CCN(Cc2nc(-c3cccc(Cl)c3)oc2C)CC1)c1ccccc1` as the compound, how does the AC50 read?
Answer: 15.8 µM [falling, partial curve]

Question: Which AC50 does the source give for `Cc1cc(-n2c(C)cc(C(=O)CSc3ncnc4ccccc34)c2C)no1` here?
Answer: 3.16 µM [falling, full curve]

Question: For `CCOC(=O)c1ccc(N2C(=O)c3n[nH]c(C)c3C2c2ccc(OCC)cc2)cc1` (stereo not drawn), which AC50 is on record?
Answer: 39.8 µM [falling, single point]

Question: With `O=C(CSc1ncccc1-c1nc2ccccc2[nH]1)N1CCCCC1` as the compound, how does the AC50 read?
Answer: 0.631 µM [falling, full curve]

Question: With `C=CCOC(=O)c1sc(N2C(=O)c3oc4ccccc4c(=O)c3C2c2ccco2)nc1C` (stereo not drawn) as the compound, how does the AC50 read?
Answer: 10 µM [falling, partial curve]

Question: With `COc1ccc(C(=O)Nc2nnc(C)s2)cc1` as the compound, how does the AC50 read?
Answer: 12.6 µM [falling, partial curve]

Question: With `CC(C)Cn1c(=O)c2ccccc2n2c(CCC(=O)N3CCN(c4ccccc4)CC3)nnc12` as the compound, how does the AC50 read?
Answer: 25.1 µM [falling, partial curve]

Question: For `CC(C)c1ccc(C2c3c(-c4ccccc4O)n[nH]c3C(=O)N2Cc2ccncc2)cc1` (stereo not drawn), which AC50 is on record?
Answer: 12.6 µM [falling, partial curve]

Question: Which AC50 does the source give for `Cc1ccn2c(Nc3ccc4c(c3)OCCO4)c(-c3cccs3)nc2c1` here?
Answer: 39.8 µM [falling, single point]

Question: Which AC50 does the source give for `CC(=O)c1c(C)[nH]c(C(=O)NCCc2ccccc2)c1C` here?
Answer: 15.8 µM [falling, single point]

Question: Which AC50 does the source give for `Cc1ccccc1-c1nnc(-c2ccccc2)o1` here?
Answer: 20 µM [falling, partial curve]

Question: For `O=C(CSc1nnc(-c2ccc(Cl)cc2)o1)Nc1ccc(F)cc1`, which AC50 is on record?
Answer: 0.0501 µM [falling, full curve]

Question: With `CC(=O)N1CCc2c(sc3c2c(=O)n(CCc2ccccc2)c(=O)n3CC(=O)Nc2ccc(C)c(F)c2)C1` as the compound, how does the AC50 read?
Answer: 20 µM [falling, partial curve]

Question: With `Cc1[nH]c2ccccc2c1C1(O)C(=O)N(Cc2ccccc2Cl)c2ccccc21` (stereo not drawn) as the compound, how does the AC50 read?
Answer: 31.6 µM [falling, single point]

Question: With `O=C1CN(C(=O)c2ccco2)C(c2ccc(F)cc2)c2cc(Cl)ccc2N1` (stereo not drawn) as the compound, how does the AC50 read?
Answer: 12.6 µM [falling, partial curve]

Question: With `CCOc1ccc(OCC)c(NC(=O)CCc2nc3cccnc3n2-c2ccccc2)c1` as the compound, how does the AC50 read?
Answer: 20 µM [falling, single point]

Question: Which AC50 does the source give for `COC(=O)C(NC(=O)CCc1c(C)nc2c(c(C)nn2-c2ccccc2)c1C)C(C)C` (stereo not drawn) here?
Answer: 15.8 µM [falling, partial curve]

Question: For `Cc1ccccc1NC(=O)[C@H](CSCc1ccccc1)N1Cc2ccccc2C1=O`, which AC50 is on record?
Answer: 20 µM [falling, single point]

Question: With `CCN(CC)C(=O)C1CCN(c2nnc(C)c3c(C)n(-c4ccc(Cl)cc4)nc23)CC1` as the compound, how does the AC50 read?
Answer: 39.8 µM [falling, single point]

Question: With `COc1ccc(-c2cc(C(=O)N3CCN(Cc4ccccc4)CC3)no2)cc1OC` as the compound, how does the AC50 read?
Answer: 2.51 µM [falling, full curve]

Question: With `NC(=O)C1(N2CCCCC2)CCN(C(=O)Nc2ccc(F)cc2)CC1` as the compound, how does the AC50 read?
Answer: 39.8 µM [falling, single point]

Question: Which AC50 does the source give for `Cc1ccc(C)c(N2CCN(C(=O)C3CCCN(Cc4nc(-c5cccc(Cl)c5)oc4C)C3)CC2)c1` (stereo not drawn) here?
Answer: 25.1 µM [falling, partial curve]

Question: Which AC50 does the source give for `CCOc1cccc(NC(=O)CSc2ncc(-c3ccccc3)[nH]2)c1` here?
Answer: 20 µM [falling, partial curve]

Question: Which AC50 does the source give for `CCOc1cccc2sc(N3CCN(C(=O)C4CC4)CC3)nc12` here?
Answer: 3.16 µM [rising, single point]

Question: With `Cc1cccc(N2CCN(C(=O)c3ccc4c(c3)N(Cc3cccc(Cl)c3)C(=O)c3ccccc3S4=O)CC2C)c1` (stereo not drawn) as the compound, how does the AC50 read?
Answer: 2.51 µM [rising, partial curve]

Question: For `Cc1cc(C)cc(NC(=O)CCCn2c3ccccc3c(=O)c3ccccc32)c1`, which AC50 is on record?
Answer: 12.6 µM [falling, partial curve]

Question: Which AC50 does the source give for `Cc1ccc(NC(=O)CCC(=O)N2Cc3ccccc3Oc3ncccc32)cc1F` here?
Answer: 39.8 µM [falling, single point]

Question: Which AC50 does the source give for `COc1ccc(-n2c(C)cc(C(=O)COC(=O)Cn3cnc4ccccc43)c2C)cc1` here?
Answer: 10 µM [falling, partial curve]

Question: For `CCOc1ccc(NC(=O)c2ccc3c(c2)CCN3S(=O)(=O)c2ccc(Cl)cc2)cc1`, which AC50 is on record?
Answer: 10 µM [falling, partial curve]

Question: Which AC50 does the source give for `O=C(O)c1c(CNCc2cccc(F)c2)c2ccccc2n1Cc1ccccc1` here?
Answer: 12.6 µM [falling, partial curve]

Question: For `O=C(NCC(c1ccc2c(c1)OCO2)N1CCOCC1)C(=O)Nc1cccc(Cl)c1` (stereo not drawn), which AC50 is on record?
Answer: 6.31 µM [falling, partial curve, poor fit]

Question: For `Fc1cccc(Cl)c1Cn1c(-c2cccs2)nc2ccccc21`, which AC50 is on record?
Answer: 31.6 µM [falling, single point]

Question: For `CCOc1ccc(NC(=O)c2ccc(F)c(S(=O)(=O)N(CC)Cc3ccccc3)c2)cc1`, which AC50 is on record?
Answer: 25.1 µM [falling, partial curve]

Question: With `O=C(CCC1N=C2c3ccccc3N=C(SCc3cccc(F)c3)N2C1=O)NCc1cccs1` (stereo not drawn) as the compound, how does the AC50 read?
Answer: 25.1 µM [falling, single point]

Question: With `Cc1ccc(Cl)cc1N1CCN(C(=O)CCNS(=O)(=O)c2ccc3c(c2)CCN3C(=O)C2CC2)CC1` as the compound, how does the AC50 read?
Answer: 39.8 µM [falling, single point]

Question: Which AC50 does the source give for `Cc1ccc2c3c1C1(C(=O)N3C(C)(C)CC2C)C(C#N)=C(N)Oc2cc(O)ccc21` (stereo not drawn) here?
Answer: 15.8 µM [falling, partial curve]

Question: For `COc1ccc(OC)c(NC(=O)c2cc(S(=O)(=O)NCCc3ccc(Cl)cc3)ccc2F)c1`, which AC50 is on record?
Answer: 39.8 µM [falling, single point]

Question: For `CCOc1ccc(OCC)c(NC(=O)c2ccc(-c3ccccc3)s2)c1`, which AC50 is on record?
Answer: 2.51 µM [falling, partial curve]

Question: With `Cc1nc2nc(SCC(=O)NC3CCC(C)CC3)nn2c(C)c1Cc1ccccc1` (stereo not drawn) as the compound, how does the AC50 read?
Answer: 39.8 µM [falling, single point]

Question: Which AC50 does the source give for `CC(=O)C(Sc1nn(C)c(=S)s1)C(=O)Nc1ccccc1` (stereo not drawn) here?
Answer: 15.8 µM [falling, partial curve]

Question: For `CCOc1ccc(CCNC(=O)c2sc3ncccc3c2-n2cccc2)cc1OCC`, which AC50 is on record?
Answer: 10 µM [falling, partial curve]

Question: For `Cc1ccc(N2CC(NC(=O)c3ccc(S(=O)(=O)N4CCCC4)cc3)CC2=O)cc1C` (stereo not drawn), which AC50 is on record?
Answer: 1 µM [rising, full curve]

Question: For `O=C(Nc1ccccc1)[C@@]12C[C@@H]1/C(=N/O)c1ccccc1O2`, which AC50 is on record?
Answer: 39.8 µM [falling, single point]

Question: Which AC50 does the source give for `Cc1cc(C)cc(-n2ccn(CC(=O)Nc3cc(C)ccc3C)c(=O)c2=O)c1` here?
Answer: 25.1 µM [falling, single point]

Question: Which AC50 does the source give for `Cc1cccc(N2CCN(C(=O)CCNS(=O)(=O)c3ccc4c(c3)CCC(=O)N4)CC2)c1C` here?
Answer: 15.8 µM [falling, partial curve]

Question: For `Cc1ccc(-c2cn(-c3cccc(Cl)c3)c(S(=O)(=O)CC(=O)Nc3cccc(C)c3)n2)cc1`, which AC50 is on record?
Answer: 10 µM [falling, partial curve]

Question: Which AC50 does the source give for `COc1ccc(CCNc2nc(-c3ccc(OC)c(OC)c3)cc(C(F)(F)F)n2)cc1OC` here?
Answer: 10 µM [falling, partial curve]

Question: With `CN(C)CCCn1c(N)c(C#N)c2nc(C#N)c(C#N)nc21` as the compound, how does the AC50 read?
Answer: 25.1 µM [rising, partial curve] [measured here: IkB-luc green channel]

Question: With `COc1ccc2occ(C(=O)c3ccc(N=C(C)N(C)C)cc3)c2c1` as the compound, how does the AC50 read?
Answer: 12.6 µM [falling, partial curve]

Question: Which AC50 does the source give for `COc1ccc(CN2CCN(C(=O)CC(C)C)CC2)c2ccccc12` here?
Answer: 12.6 µM [falling, partial curve]

Question: Which AC50 does the source give for `CSc1cccc(Nc2nc3c(S(=O)(=O)c4ccccc4)nnn3c3ccc(Cl)cc23)c1` here?
Answer: 25.1 µM [rising, single point]

Question: For `CCNc1nc(NC(C)C)nc(N(C#N)CCOc2ccc(Cl)cc2Cl)n1`, which AC50 is on record?
Answer: 12.6 µM [falling, partial curve]

Question: With `CCOc1ccc(OCc2ccc(C(=O)O)o2)cc1` as the compound, how does the AC50 read?
Answer: 2 µM [falling, full curve]

Question: Which AC50 does the source give for `Cc1ccc(C)c(NC(=O)CSc2ncc(S(=O)(=O)c3ccc(C)c(Cl)c3)c(=O)[nH]2)c1` here?
Answer: 10 µM [falling, partial curve]

Question: Which AC50 does the source give for `O=C(c1ccc2c(c1)N(Cc1ccc(F)cc1)C(=O)c1ccccc1S2=O)N1CCC(Cc2ccccc2)CC1` (stereo not drawn) here?
Answer: 5.01 µM [falling, partial curve]

Question: For `CCc1ccc(CNC(=O)c2ccc(NC(=O)N3CCCCc4ccccc43)cc2)cc1`, which AC50 is on record?
Answer: 15.8 µM [falling, partial curve]

Question: With `COc1ccccc1NC(=O)c1cccc(S(=O)(=O)N2CCCCCC2)c1` as the compound, how does the AC50 read?
Answer: 25.1 µM [falling, single point]

Question: Which AC50 does the source give for `Cc1c(Cl)cccc1NC(=O)Nc1nnc(N2CCCCCC2)s1` here?
Answer: 20 µM [falling, single point]
